Measured values as given in PMC7564345.
These are yes or no findings as the source states them, for the method shown.

Key:
Assay in all cases: two-hybrid; bait in pGBKT7 (binding domain), prey in pGADT7 (activation domain), yeast strain Y2H gold; growth on quadruple dropout medium (-Trp, -Leu, -His, -Ade) at 30 °C, double dropout as control of transformation
[1] = molecular target: Mlp1104486 (Melampsora larici-populina)
[2] = molecular target: Mlp151107359 (Melampsora larici-populina)
[3] = molecular target: Mlp786274 (Melampsora larici-populina)
[4] = molecular target: Mlp3351690 (Melampsora larici-populina)
[5] = molecular target: Mlp752166 (Melampsora larici-populina)
[6] = molecular target: Mlp1123281 (Melampsora larici-populina)
[7] = molecular target: Mlp51108708 (Melampsora larici-populina)
[8] = molecular target: Mlp3353845 (Melampsora larici-populina)
[9] = molecular target: Mlp772983 (Melampsora larici-populina)

Measured: binding

B1: prey-AtPDI-11 (protein, UniProt O22263 23-361)
chain: DDVVVLTDDSFEKEVGKDKGALVEFYAPWCGHCKKLAPEYEKLGASFKKAKSVLIAKVDCDEQKSVCTKYGVSGYPTIQWFPKGSLEPQKYEGPRNAEALAEYVNKEGGTNVKLAAVPQNVVVLTPDNFDEIVLDQNKDVLVEFYAPWCGHCKSLAPTYEKVATVFKQEEGVVIANLDADAHKALGEKYGVSGFPTLKFFPKDNKAGHDYDGGRDLDDFVSFINEKSGTSRDSKGQLTSKAGIVESLDALVKELVAASEDEKKAVLSRIEEEASTLKGSTTRYGKLYLKLAKSYIEKGSDYASKETERLGRVLGKSISPVKADELTLKRNILTTFVASS
no binding: all assays above
